Results as given in PubChem BioAssay AID504375 (National Center for Advancing Translational Sciences (NCATS), 2011).
In all, about 1,600 compounds went through this assay and about 25 (2%) were called active. About 7% were inconclusive and are not listed. The call rests on the fitted dose curve; in most records, active means well fitted inhibition curve with a large enough effect; inconclusive means small, poorly fitted or top-dose-only effect, or effect the other way; inactive means no such curve, though single readings can be large or run the other way. This is one part of the list.

Protein sequences, listed by entry. Tags and fused reporters are not part of them.
UniProt Q01196, whole entry, looked up: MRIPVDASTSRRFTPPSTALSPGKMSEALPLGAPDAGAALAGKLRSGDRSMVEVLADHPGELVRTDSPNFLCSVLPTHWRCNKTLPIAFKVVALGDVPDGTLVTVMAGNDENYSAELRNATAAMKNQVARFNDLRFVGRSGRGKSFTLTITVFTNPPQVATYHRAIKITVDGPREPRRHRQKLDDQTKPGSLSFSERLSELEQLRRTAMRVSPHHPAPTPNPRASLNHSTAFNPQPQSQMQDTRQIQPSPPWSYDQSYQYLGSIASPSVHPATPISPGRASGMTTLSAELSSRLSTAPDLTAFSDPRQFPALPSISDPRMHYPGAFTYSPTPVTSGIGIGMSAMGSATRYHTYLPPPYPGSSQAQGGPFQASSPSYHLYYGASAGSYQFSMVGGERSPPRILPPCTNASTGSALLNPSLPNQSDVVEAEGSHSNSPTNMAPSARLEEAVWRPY
UniProt Q13951, whole entry, looked up: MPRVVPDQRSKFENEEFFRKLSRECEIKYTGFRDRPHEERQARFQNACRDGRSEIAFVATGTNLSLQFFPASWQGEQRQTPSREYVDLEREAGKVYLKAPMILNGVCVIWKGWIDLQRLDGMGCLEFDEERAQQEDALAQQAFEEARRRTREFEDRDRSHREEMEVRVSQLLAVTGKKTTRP

Target: Runt-related transcription factor 1 (Homo sapiens) + Core-binding factor subunit beta (Homo sapiens) (UniProt Q01196+Q13951)
Assay: qHTS Assay for Compounds Blocking the Interaction Between CBF-beta and RUNX1 for the Treatment of Acute Myeloid Leukemia: Hit Validation with Orthogonal Assay
Conditions: CBFbeta-RUNX1 binding orthogonal assay, biochemical; series mostly up to 41 µM; activity change, negative = inhibition: at the top concentration
Procedure, shortened: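 This is an orthogonal TR-FRET assay. His6-CBF-beta and biotin-RUNX1 (30 nM each) were preincubated with compound for 30 min, then Tb-anti-His antibody (0.44 ng) and streptavidin-XL665 (5 nM) were added. The signal was read after 90 min.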
On the % scale 0 is the no-effect control and ±100 the full control effect.

Structure (SMILES) | activity change, negative = inhibition
CN(C)c1ccc(NC(=O)Nc2csc3ccccc23)cc1 | inactive: -4.5%
O=C(c1cc(Cl)cc(Cl)c1)N1CCN(c2cc(C(F)(F)F)nc3ccccc23)CC1 | inactive: -4.37%
O=C(COC(=O)c1cc(S(=O)(=O)N2CCOCC2)ccc1O)Nc1cc(S(=O)(=O)N2CCCC2)ccc1Cl | inactive: -0.93%
C=CCNC(=S)Nc1c(C(=O)OC)[nH]c2cc(OC)ccc12 | inactive: -5.57%
Cc1onc2c(=O)n(-c3ccccc3)nc(-c3ccccc3)c12 | inactive: -0.22%
CCOC(=O)N1CCc2c(sc3nc[nH]c(=O)c23)C1 | inactive: -10.5%
O=C(Oc1cc(=O)oc2c1c(=O)n1c3c(cccc23)CC1)c1ccccc1 | inactive: -23.9%
CC1(C)C([N+](=O)[O-])C(c2ccc(F)cc2)NC(c2ccc(F)cc2)C1[N+](=O)[O-] (stereo not drawn) | inactive: 0.0612%
COc1ccc(/C=N/NC(=O)c2cnccn2)c(OC)c1OC | inactive: 16.7%
Cc1cc(C)c(NC(N)=S)c(C)c1 | inactive: -2.94%
Cc1[nH]ncc1-c1ccccc1Cl | inactive: -3.61%
O=S(=O)(Nc1nc(SCc2ccc(Cl)cc2)n[nH]1)c1ccc(F)cc1 | inactive: -7.77%
O=C(Cc1ccccc1)Nc1c(Cl)ccc2nsnc12 | inactive: 43.7%
CCC(C)NC(=S)Nc1ccccc1 (stereo not drawn) | inactive: -4.94%
Cc1ccc(-c2cc(-c3c(C)nn(C)c(=O)c3N)[nH]n2)cc1 | inactive: 30.9%
COc1ccc2[nH]c(=O)c(CN(C(=O)C3CCCO3)c3ccc(C)c(C)c3)cc2c1 (stereo not drawn) | inactive: 15.5%
COc1cc(C2C(C#N)=C(N)OC3=C2C(=O)CC(C)(C)C3)ccc1OCCN1CCOCC1 (stereo not drawn) | inactive: -3.76%
O=S(=O)(c1cccc(F)c1)N1CCc2sccc2C1c1ccc(OC(F)(F)F)cc1 (stereo not drawn) | inactive: -1.76%
O=C(O)c1ccccc1N/N=C/C1=C(N2CCOCC2)C(=C\c2ccccc2)/CC1 | inactive: -13.9%
CN(C)c1ccc(C2CC(=O)C=C(Nc3ccccc3N)C2)cc1 (stereo not drawn) | inactive: 9.93%
CCOC(=O)c1cnc2c(C(=O)OCC)cnn2c1N | inactive: -0.967%
Cc1cc(C(=O)NNS(=O)(=O)c2cccc(Cl)c2)nn1C(C)(C)C | inactive: -4.73%
Nc1cc(Nc2ccc(Br)cc2)nc(N)n1 | inactive: 3.46%
O=[N+]([O-])c1sccc1CS(=O)(=O)c1ccccc1 | inactive: 71.5%

Structure (SMILES) | activity change, negative = inhibition
CC(C)(C)C1CCC(OC(=O)CN2CCCCC2)CC1 (stereo not drawn) | inactive: -7.93%
Cc1ccnc(SCCn2c(N3CCN(C)CC3)nc3c2c(=O)n(C)c(=O)n3C)n1 | inactive: 0.893%
O=C(N/N=C/c1ccncc1)c1cnccn1 | inactive: 27.7%
COc1ccc(C(=O)CN2C(=O)c3ccccc3C2=O)cc1 | inactive: 24%
CCCc1cc(NCc2ccccn2)n2nc(C)c(-c3ccccc3)c2n1 | inactive: -5.29%
COC(=O)c1[nH]c2ccccc2c1NC(=O)c1c(F)cccc1F | inactive: 0.0979%
CCCc1nc2sc3ccccc3c(=O)c2c(=O)n1Cc1ccc(OC)cc1 | inactive: 2.61%
Cc1c(-c2ccc(Cl)cc2)[n+](=O)c2c(n1[O-])CCCC2 | inactive: 25.6%
Nc1nccc(/C=C/c2c(Cl)cccc2Cl)n1 | inactive: 0.0245%
O=C(O)c1nccnc1C(=O)Nc1ccc(Oc2c(Cl)cccc2Cl)nc1 | inactive: 14%
Nc1cc(N)nc(CS)n1 | inactive: 11.3%
Cc1cc(=O)[nH]c2c1c(C)nn2C(C)(C)C | inactive: -9.76%
CC(=O)/C(N=Nc1ccc(-n2ccc(C(F)(F)F)n2)cc1)=C(\C)O | inactive: 14.8%
CCCCC1C2C(=O)N(c3ccccc3)C(=O)C2ON1c1ccccc1 (stereo not drawn) | inactive: -6.53%
CN1C(=CC=C2C=C(I)C(=O)C(I)=C2)C(C)(C)c2ccccc21 | inactive: 57.4%
O=C(/C=C/c1ccccc1)c1c[nH]c2ccccc12 | inactive: -2.63%
Brc1ccc2oc(-c3ccn[nH]3)cc2c1 | inactive: 6.92%
Cc1ccc(S(=O)(=O)NNC(=S)NC(C)(C)C)cc1 | inactive: -2.83%
Cc1ccnn1CC(=O)N/N=C/c1ccc([N+](=O)[O-])s1 | inactive: -18.3%
CN(C)CCCNc1cc(C(C)(C)C)nc2c(-c3ccc(Cl)cc3)cnn12 | inactive: -1.05%
S=c1[nH]nc(-c2cccs2)n1C1CCCCC1 | inactive: -14.4%
COc1ccccc1/C=C/C=N/NC(=O)CCn1cnc2ccccc21 | inactive: 17%
NC(=O)N/N=C/CCc1ccccc1 | inactive: -10.9%
COc1ccc(/C(C)=N/NC(=O)CNC(=O)Cc2ccccc2)c(OC)c1 | inactive: -5.21%

Structure (SMILES) | activity change, negative = inhibition
CN(C(=O)Nc1ccccc1)n1cnc2ccccc2c1=O | inactive: 10.4%
CCOC(=O)N1CCc2c(sc(NC(=O)CN(CC)CC)c2C#N)C1 | inactive: -1.05%
CN1C(=O)N(c2nnc(C(C)(C)C)s2)C(=O)C1c1ccccc1 (stereo not drawn) | inactive: 1.93%
COc1c(/C=N/NC(=O)c2ccncc2)c(CCN(C)C(C)=O)cc2c1OCO2 | inactive: -7.29%
Cn1ncc2c(c(SCc3ccc(Cl)cc3Cl)nn2C)c1=O | inactive: 16.1%
O=[N+]([O-])c1ccccc1CSc1ccccn1 | inactive: 21.1%
Cn1c(=O)c2cc3ccccc3nc2n(C)c1=O | inactive: 10%
COc1ccc(CCN(C)CCC(=O)Nc2cccc(C)c2)cc1OC | inactive: -2.75%
CN(C)CCc1c[nH]c2ccc(CC3COC(=O)N3)cc12 (stereo not drawn) | inactive: 13.7%
CCNC(=S)N1N=C2c3ccccc3CCC2C1c1ccc(F)cc1 (stereo not drawn) | inactive: 6.61%
CCNC(=S)NNc1ccccc1 | inactive: 0.232%
CN(c1cnn(-c2ccccc2)c(=O)c1Cl)n1cccc1 | inactive: -10.8%
Cc1ccc(C(CCNC(C)c2cccs2)c2ccco2)cc1 (stereo not drawn) | inactive: 3.18%
Cc1ccc(-n2[nH]c(C)c(/C=N/c3cccc(C)n3)c2=O)cc1 | inactive: 7.07%
O=[N+]([O-])c1ccc(C2CC(c3ccccc3)=Nc3ccccc3S2)cc1 (stereo not drawn) | inactive: 25.5%
O=C(O)/C(=C\c1ccccc1)c1ccccc1 | inactive: 14%
CCCSc1cc(Cl)nc(N)n1 | inactive: -0.0734%
CC(C)(C)OC(=O)N1CCC[C@H]1c1nnc(SCc2ccccc2)o1 | inactive: 6.12%
Cc1ccc(CN(C(=O)c2cc(=O)c3cc(C)cc(C)c3o2)C2CCS(=O)(=O)C2)cc1 (stereo not drawn) | inactive: 1.6%
CC(C)(C)OC(=O)N1CCCN(C(=O)Nc2cccc(Cl)c2)CC1 | inactive: -9.47%
CCOC(=O)N1CCC(NS(=O)(=O)c2ccccc2)CC1 | inactive: -10%
COc1ccc(CN(Cc2cccn2C)S(=O)(=O)c2ccc(F)cc2)cc1 | inactive: -6.48%
O=C(O)C1CCc2sc3[nH]c(=S)n(-c4ccccc4)c(=O)c3c21 (stereo not drawn) | inactive: 12.3%
CC1CCc2c(sc(NC(=O)Cn3nc(C(=O)O)c4ccccc4c3=O)c2C#N)C1 (stereo not drawn) | inactive: -3.21%

Among those listed so far, 3 have a cyano group:
Structure (SMILES) | activity change, negative = inhibition
COc1cc(C2C(C#N)=C(N)OC3=C2C(=O)CC(C)(C)C3)ccc1OCCN1CCOCC1 (stereo not drawn) | inactive: -3.76%
CCOC(=O)N1CCc2c(sc(NC(=O)CN(CC)CC)c2C#N)C1 | inactive: -1.05%
CC1CCc2c(sc(NC(=O)Cn3nc(C(=O)O)c4ccccc4c3=O)c2C#N)C1 (stereo not drawn) | inactive: -3.21%

Grouped by structure: the compounds so far containing a furan ring, fused or not
Structure (SMILES) | activity change, negative = inhibition
Brc1ccc2oc(-c3ccn[nH]3)cc2c1 | inactive: 6.92%
Cc1ccc(C(CCNC(C)c2cccs2)c2ccco2)cc1 (stereo not drawn) | inactive: 3.18%

(list continues)

Structure (SMILES) | activity change, negative = inhibition
CCCCNC(=O)Nc1ccccc1CC | inactive: 6.62%
CCN(CC)CCN1C(=O)C(=O)/C(=C(/O)c2ccc3c(c2)CC(C)O3)C1c1ccc(OC)cc1 (stereo not drawn) | inactive: 8.96%
O=C(CN1C(=O)c2ccccc2S1(=O)=O)c1ccc2c(c1)OCCCO2 | inactive: 0.306%
CCOC(=O)C1=C(C)NC(C)=C(C(=O)OCC)C1 | inactive: -3.83%
Cc1cc([N+](=O)[O-])nn1CC(=O)N/N=C/c1ccccc1O | inactive: 8.38%
O=C(CC1NCCNC1=O)NC1Cc2ccccc2C1 (stereo not drawn) | inactive: 17.6%
COc1ccc2[nH]c(-c3ccccc3)cc2c1 | inactive: 7.05%
CCOC(=O)NC1c2ccccc2Oc2ccccc21 | inactive: 11.8%
O=C(O)/C=C/C(=O)Nc1ccc(-n2ccc(C(F)(F)F)n2)cc1 | inactive: 6.45%
COc1cc2c(cc1OC)C1(C)N(CC2)C(C(C)=O)=NN1c1ccc(Cl)cc1 (stereo not drawn) | inactive: 0.746%
CCOc1ccc(/C=C2\NC(=S)NC2=O)cc1 | inactive: 27.6%
Cc1ccc(C2=NOC(=O)/C2=C\c2ccc(C)o2)cc1 | inactive: -4.73%
O=C(CCl)NCCCN(C(=O)C(Cl)Cl)c1ccc([N+](=O)[O-])cc1 | inactive: 20.2%
Cn1c(C(=O)c2ccncc2)cc2ccccc21 | inactive: 41.3%
CCOC(=O)/C(C#N)=C/Nc1ccsc1C(C)=O | inactive: 34.3%
CCCCNc1nc2sc3c(c2c(=O)n1-c1cccc(Cl)c1)CCN(C)C3 | inactive: -5.84%
CCCCc1cc(=O)oc2c(C)c(OCc3nn[nH]n3)ccc12 | inactive: 11.9%
CC(/C=N/n1c(COc2ccccc2)n[nH]c1=S)=C\c1ccco1 | inactive: 7.3%
COc1cc(/C=N/n2nnnc2N)cc(OC)c1OC | inactive: 6.57%
O=C(O)c1ccccc1Sc1ccccc1S(=O)(=O)NC1CCCCC1 | inactive: -9.91%
COc1ccc(S(=O)(=O)N2CCc3ccccc32)cc1C(=O)Nc1cccnc1 | inactive: 1.08%
COc1ccc(/C=C/C(=O)Oc2cc(O)cc(O)c2)cc1 | inactive: 3.35%
N#CC1CC(c2ccccc2)Nc2cc(Cl)ccc2N1 (stereo not drawn) | inactive: -11.5%
CN(C)c1cc(-c2ccc([N+](=O)[O-])cc2)oc(=O)c1Cl | inactive: 7.12%

Structure (SMILES) | activity change, negative = inhibition
COc1ccc(/C=N/NC(=O)c2ccc3nc[nH]c3c2)cc1OC | inactive: 17.8%
CCCCc1c(C)nc2cc(-c3ccco3)[nH]n2c1=O | inactive: 5.57%
CC(C)Cn1c(=O)c2c(nc3n2CCS3)n(C)c1=O | inactive: -3.25%
COc1ccccc1C(=O)Nc1ccc2c(c1)nc(CCNC(=O)c1ccccc1)n2C | inactive: -12.3%
Cc1c(C(=O)/C=C/N(C)C)nnn1-c1ccc(Cl)cc1Cl | inactive: -1.77%
CN(C)C(=O)CSc1nnc(NC(=O)CCc2ccccc2)s1 | inactive: -2.85%
Nc1ccc(Oc2ccccc2F)nc1 | inactive: 4.8%
Oc1ccc(-c2nc3ccccc3s2)c(O)c1 | inactive: -2.67%
Cc1ccsc1/C=N/N1CCN(c2ccccn2)CC1 | inactive: 3.55%
COc1ccc(C(=O)NC(=S)Nc2ccc(CN3CCOCC3)cc2)cc1 | inactive: -9.35%
COc1cccc(/C=N/Nc2nc3ccccc3[nH]2)c1O | inactive: 13.1%
CCN1C/C(=C/c2cccs2)c2nc3ccccc3c(C(=O)O)c2C1 | inactive: 30.8%
Clc1cccc(Cl)c1Cn1nnc(N2CCCC2)n1 | inactive: 4.5%
O=C(CN1C(=O)c2ccccc2S1(=O)=O)c1ccc2c(c1)OCCO2 | inactive: -8.88%
COc1ccc(NC(=O)Nc2nc3ccccc3s2)cc1 | inactive: -7.1%
NNC(=O)c1ccc(Cn2cccn2)o1 | inactive: 1.02%
Cc1ccccc1Nc1nc(N)nc(CCl)n1 | inactive: 1.69%
O=C(O)C1(c2ccccc2)CCN(S(=O)(=O)c2ccc(Cl)s2)CC1 | inactive: -15.3%
Cc1ccc(/C=C/c2nc3ccccc3c(=O)[nH]2)cc1 | inactive: -1.31%
CCOc1ccc(N2C(=O)CC(NNc3nc4ccccc4s3)C2=O)cc1 (stereo not drawn) | inactive: -0.856%
COC(=O)c1cccc(NC(=O)C(C)(C)C)c1 | inactive: 2.41%
COc1cccc(CC(=O)NNC(=O)c2c(-c3ccccc3)noc2C)c1 | inactive: -4.42%
